Results are given in words; binding and its absence hold for the method and conditions named. Binding seen in cells or lysates may run through a third protein. Some binding calls cover weakened binding; strength is not graded here. For some assays here: Where a sequence is shown, tags or fusion partners need not be part of it.

Chains of the proteins cited; added tags and fusions are not shown.
UniProt P42227: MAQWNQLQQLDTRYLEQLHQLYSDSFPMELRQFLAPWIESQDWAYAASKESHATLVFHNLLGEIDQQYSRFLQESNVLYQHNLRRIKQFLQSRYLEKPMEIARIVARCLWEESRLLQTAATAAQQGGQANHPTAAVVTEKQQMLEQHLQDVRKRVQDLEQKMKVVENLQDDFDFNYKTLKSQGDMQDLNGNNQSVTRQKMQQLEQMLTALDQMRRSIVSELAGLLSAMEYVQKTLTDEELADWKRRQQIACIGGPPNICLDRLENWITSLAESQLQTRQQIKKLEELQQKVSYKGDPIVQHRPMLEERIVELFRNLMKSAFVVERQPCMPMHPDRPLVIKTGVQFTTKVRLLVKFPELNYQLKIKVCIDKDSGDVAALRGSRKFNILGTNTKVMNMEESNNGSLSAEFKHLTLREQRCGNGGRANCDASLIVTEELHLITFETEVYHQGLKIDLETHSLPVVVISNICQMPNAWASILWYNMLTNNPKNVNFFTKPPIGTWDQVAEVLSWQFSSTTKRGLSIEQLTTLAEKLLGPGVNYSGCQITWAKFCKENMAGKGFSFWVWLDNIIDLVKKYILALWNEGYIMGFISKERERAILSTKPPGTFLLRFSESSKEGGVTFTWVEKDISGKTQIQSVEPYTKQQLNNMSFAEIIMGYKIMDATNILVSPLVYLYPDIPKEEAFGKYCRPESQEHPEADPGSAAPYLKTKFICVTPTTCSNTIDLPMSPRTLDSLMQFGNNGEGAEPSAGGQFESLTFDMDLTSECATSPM
UniProt P40763: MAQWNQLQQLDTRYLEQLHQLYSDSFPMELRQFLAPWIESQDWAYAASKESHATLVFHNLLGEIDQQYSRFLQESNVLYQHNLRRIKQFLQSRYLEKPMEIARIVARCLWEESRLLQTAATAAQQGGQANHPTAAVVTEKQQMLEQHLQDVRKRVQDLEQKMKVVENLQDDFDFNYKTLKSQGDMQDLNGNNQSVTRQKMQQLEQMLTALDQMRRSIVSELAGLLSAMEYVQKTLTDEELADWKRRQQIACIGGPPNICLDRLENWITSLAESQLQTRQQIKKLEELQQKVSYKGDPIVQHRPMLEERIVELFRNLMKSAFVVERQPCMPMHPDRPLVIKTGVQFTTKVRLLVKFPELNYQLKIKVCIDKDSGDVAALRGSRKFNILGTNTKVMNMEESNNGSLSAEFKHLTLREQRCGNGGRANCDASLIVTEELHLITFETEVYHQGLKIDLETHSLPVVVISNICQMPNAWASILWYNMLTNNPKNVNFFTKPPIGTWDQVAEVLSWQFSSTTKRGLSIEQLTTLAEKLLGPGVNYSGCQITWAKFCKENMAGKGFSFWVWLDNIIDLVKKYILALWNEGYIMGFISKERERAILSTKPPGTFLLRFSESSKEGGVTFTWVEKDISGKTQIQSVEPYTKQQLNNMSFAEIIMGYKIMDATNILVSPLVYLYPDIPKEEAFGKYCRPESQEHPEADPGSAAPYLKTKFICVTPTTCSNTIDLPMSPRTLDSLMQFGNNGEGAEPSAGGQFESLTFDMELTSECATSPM

Consider four molecules from article PMC3446372.

One assay has as its target T1, Myc-PTPMeg2 (human) (UniProt P43378).
T1 sequence: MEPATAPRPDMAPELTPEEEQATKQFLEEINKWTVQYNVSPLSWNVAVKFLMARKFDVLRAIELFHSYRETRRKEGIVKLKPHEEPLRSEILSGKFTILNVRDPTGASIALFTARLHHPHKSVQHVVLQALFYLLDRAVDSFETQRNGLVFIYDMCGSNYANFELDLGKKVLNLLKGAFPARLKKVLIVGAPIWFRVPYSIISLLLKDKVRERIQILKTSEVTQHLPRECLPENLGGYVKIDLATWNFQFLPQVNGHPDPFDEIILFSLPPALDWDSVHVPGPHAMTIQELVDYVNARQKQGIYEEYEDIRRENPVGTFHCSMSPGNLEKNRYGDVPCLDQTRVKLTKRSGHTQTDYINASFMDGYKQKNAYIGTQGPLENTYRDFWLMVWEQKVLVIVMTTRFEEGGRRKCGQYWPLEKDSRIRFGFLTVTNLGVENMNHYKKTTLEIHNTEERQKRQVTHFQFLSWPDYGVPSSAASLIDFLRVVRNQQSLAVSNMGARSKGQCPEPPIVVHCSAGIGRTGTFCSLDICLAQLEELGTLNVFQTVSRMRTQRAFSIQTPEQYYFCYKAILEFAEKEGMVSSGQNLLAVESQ
The assay is described as follows: co-IP; HEK293T (293T) cells co-transfected with Myc-PTPMeg2 and Flag-tagged STAT; lysis buffer 20 mM Tris-Cl pH 7.6, 150 mM NaCl, 0.5% NP40; precipitated with anti-Flag or (reciprocal) anti-Myc antibody, 4°C; without or with IL-6 stimulation for 30 min.

Assay [1] deals with endogenous STAT3 (mouse brain tissue) (mouse (endogenous in mouse brain tissue)) (UniProt P42227). The experiment in a line: co-IP; endogenous proteins; lysates from mouse brain tissue or MCF7 cells (without or with IL-6 for 30 min); anti-STAT3 antibody (C20) and anti-PTPMeg2 rabbit polyclonal antibody.
In another assay the target is GST-STAT3 (UniProt P40763). The experiment in a line: pull-down; GST or GST-STAT3 fusion proteins mixed with Myc-PTPMeg2 prepared from cells; GST beads, washed by PBST buffer; only the target purified.
In another assay the target is Flag-STAT3 (UniProt P40763). The assay is described as follows: co-IP; HEK293T (293T) cells co-transfected with Myc-PTPMeg2 and Flag-tagged STAT; lysis buffer 20 mM Tris-Cl pH 7.6, 150 mM NaCl, 0.5% NP40; precipitated with anti-Flag or (reciprocal) anti-Myc antibody, 4°C; without or with IL-6 stimulation for 30 min.
The target in assay [2] is endogenous STAT3 (MCF7 cells) (human (endogenous in MCF7)) (UniProt P40763). The assay is described as follows: co-IP; endogenous proteins; lysates from mouse brain tissue or MCF7 cells (without or with IL-6 for 30 min); anti-STAT3 antibody (C20) and anti-PTPMeg2 rabbit polyclonal antibody.

On to “phosphorylated Flag-STAT3 (pSTAT3) (from UniProt P40763 1-770)”, for which the binding result with Myc-PTPMeg2 (human) was “binds”.

B1: endogenous PTPMeg2 (mouse brain tissue) (enzyme, UniProt O35239 1-593)
chain: MEPATAPRPDMAPELTPEEEQATKQFLEEINKWTVQYNVSPLSWNVAVKFLMARKFDVLRAVELFHCYRETRRKEGIVKLKPHEEPLRSEILSGKFTILNVRDPTGASIALFTARLHHPHKSAQHVVLQALFYLLDRAVDSFETQRNGLVFIYDMCGSNYANFELDLGKKVLNLLKGAFPARLKKVLIVGAPIWFRVPYSIISLLLKDKVRERIQILKTSEVTQHLPRECLPENLGGYVKIDLATWNFQFLPQVNGHPDPFDEIILSSLPPALDWDSVHVPGPHAMTIQELVDYVNTRQKRGIYEEYEDIRRENPVGTFHCSMSPGNLEKNRYGDVPCLDQTRVKLTKRSGHTQTDYINASFMDGYKQKNAYIGTQGPLENTYRDFWLMVWEQKVLVIVMTTRFEEGGRRKCGQYWPLEKDSRIRFGFLTVTNLGVENMNHYKKTTLEIHNTEERQKRQVTHFQFLSWPDYGVPSSAASLIDFLRVVRNQQSMAVGNLGARSKGQCPEPPIVVHCSAGIGRTGTFCSLDICLAQLEELGTLNVFQTVSRMRTQRAFSIQTPEQYYFCYKAILEFAEREGMVPSGHSLLAMDGQ
Take B1: the binding result in assay [1] is given as “binds”.

B2: Myc-PTPMeg2 (enzyme, UniProt P43378 1-593)
chain: MEPATAPRPDMAPELTPEEEQATKQFLEEINKWTVQYNVSPLSWNVAVKFLMARKFDVLRAIELFHSYRETRRKEGIVKLKPHEEPLRSEILSGKFTILNVRDPTGASIALFTARLHHPHKSVQHVVLQALFYLLDRAVDSFETQRNGLVFIYDMCGSNYANFELDLGKKVLNLLKGAFPARLKKVLIVGAPIWFRVPYSIISLLLKDKVRERIQILKTSEVTQHLPRECLPENLGGYVKIDLATWNFQFLPQVNGHPDPFDEIILFSLPPALDWDSVHVPGPHAMTIQELVDYVNARQKQGIYEEYEDIRRENPVGTFHCSMSPGNLEKNRYGDVPCLDQTRVKLTKRSGHTQTDYINASFMDGYKQKNAYIGTQGPLENTYRDFWLMVWEQKVLVIVMTTRFEEGGRRKCGQYWPLEKDSRIRFGFLTVTNLGVENMNHYKKTTLEIHNTEERQKRQVTHFQFLSWPDYGVPSSAASLIDFLRVVRNQQSLAVSNMGARSKGQCPEPPIVVHCSAGIGRTGTFCSLDICLAQLEELGTLNVFQTVSRMRTQRAFSIQTPEQYYFCYKAILEFAEKEGMVSSGQNLLAVESQ
Regarding B2, the binding entry with GST-STAT3 and with Flag-STAT3 was “binds” each time.

B3: endogenous PTPMeg2 (MCF7 cells) (enzyme, UniProt P43378 1-593)
chain: MEPATAPRPDMAPELTPEEEQATKQFLEEINKWTVQYNVSPLSWNVAVKFLMARKFDVLRAIELFHSYRETRRKEGIVKLKPHEEPLRSEILSGKFTILNVRDPTGASIALFTARLHHPHKSVQHVVLQALFYLLDRAVDSFETQRNGLVFIYDMCGSNYANFELDLGKKVLNLLKGAFPARLKKVLIVGAPIWFRVPYSIISLLLKDKVRERIQILKTSEVTQHLPRECLPENLGGYVKIDLATWNFQFLPQVNGHPDPFDEIILFSLPPALDWDSVHVPGPHAMTIQELVDYVNARQKQGIYEEYEDIRRENPVGTFHCSMSPGNLEKNRYGDVPCLDQTRVKLTKRSGHTQTDYINASFMDGYKQKNAYIGTQGPLENTYRDFWLMVWEQKVLVIVMTTRFEEGGRRKCGQYWPLEKDSRIRFGFLTVTNLGVENMNHYKKTTLEIHNTEERQKRQVTHFQFLSWPDYGVPSSAASLIDFLRVVRNQQSLAVSNMGARSKGQCPEPPIVVHCSAGIGRTGTFCSLDICLAQLEELGTLNVFQTVSRMRTQRAFSIQTPEQYYFCYKAILEFAEKEGMVSSGQNLLAVESQ
For B3, in assay [2], the binding entry was “binds”.
